PubChem BioAssay AID2685 (National Center for Advancing Translational Sciences (NCATS), 2010)
The other results are listed elsewhere or left out. Shown are side measurements of this screen, not its main read-out; they come without a call. Compounds called inactive in the main read-out are mostly missing here. Words in brackets tell the shape of the fitted curve; partial curves, single points and poor fits give uncertain potencies.

Experiment: qHTS Assay for Lipid Storage Modulators in Drosophila S3 Cells;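 as to cell number change: cells counted by Cell Tracker Red CMTPX staining in the red channel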
Conditions: BODIPY lipid droplet fluorescence, 18-24 h; for cell number change: measured here: cell count max response, cells fed with added oleic acid
Method in brief: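 Drosophila S3 cells loaded with oleic acid (400 uM, as added) and compounds at several concentrations; lipid droplets imaged by 488-nm laser-scanning cytometry, 500–530 nm intensity and object ratio to cell channel. Percent activity normalized to 20 uM Triacsin C.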

[1] = measured here: cell number channel AC50, cells fed with added oleic acid
[2] = measured here: lipid fluorescence (Fed channel) AC50, cells fed with added oleic acid

| Compound | cell number change [%] | AC50 [1] | AC50 [2] |
| --- | --- | --- | --- |
| O=C(NC(=S)Nc1ccccc1N1CCCC1)c1ccccc1Br | 35 | 29.1 µM [rising, single point] | 2.91 µM [falling, partial curve] |
| CC(=O)Nc1sc2c(c1C#N)CCCC2 | 0.129 |  | 25.9 µM [rising, single point] |
| COC(=O)c1c(NC(=O)CCc2ccc(C)o2)sc(C)c1C | -0.811 |  | 2.06 µM [rising, partial curve] |
| CC(C)N(Cc1ccccc1)C(=O)CCc1ccccc1 | -1.92 | 0.164 µM [falling, partial curve, poor fit] |  |
| CS/C(N)=N/S(=O)(=O)c1ccc(NC(C)=O)cc1 | -17.3 |  | 0.13 µM [falling, full curve, poor fit] |
| O=C(CCc1ccccc1)Nc1ncc2c(n1)CCCC2=O | 2.99 |  | 0.206 µM [rising, full curve] |
| CC1CCCN(C(=O)CCc2ccccc2)C1 (stereo unspecified) | 3.84 |  | 1.3 µM [rising, partial curve] |
| N/C(=N\OC(=O)/C=C/c1ccccc1Cl)c1ccncc1 |  | 6.51 µM [rising, single point] |  |
| COc1ccc(N2C(=O)C(Cl)=C(N3CCCC(C)C3)C2=O)cc1 (stereo unspecified) | 3.32 |  | 1.3 µM [rising, full curve, poor fit] |
| O=C(COC(=O)/C=C/c1cccc(C(F)(F)F)c1)NCc1ccco1 |  |  | 4.11 µM [rising, full curve, poor fit] |
| O=C(N/N=C\c1ccc([N+](=O)[O-])o1)c1cncc(Br)c1 | -30.7 | 1.64 µM [falling, partial curve, poor fit] | 29.1 µM [falling, single point] |
| CCN1C(=O)CSC1=Nc1ccc(Cl)c(Cl)c1 | -28 |  | 20.6 µM [falling, single point] |
| CCc1nc(SCC(=O)Nc2cccc3ccccc23)[nH]c(=O)c1C | -10.9 |  |  |
| COc1ccc(-c2cn[nH]c2-c2ccc(OCc3ccc([N+](=O)[O-])cc3)cc2O)cc1 | -57.9 | 16.4 µM [falling, single point] | 16.4 µM [falling, partial curve] |
| O=C1C2C3C=CC(C4CC34)C2C(=O)N1/N=C/c1ccc([N+](=O)[O-])s1 (stereo unspecified) | 32.7 | 0.92 µM [rising, full curve] |  |
| O=C1/C(=C/c2cccs2)CCc2ccccc21 | -0.354 |  |  |
| Cc1ccc2ncc(S(=O)(=O)c3ccccc3)c(N3CCCCC3C)c2c1 (stereo unspecified) | -5.69 |  | 9.2 µM [falling, partial curve] |
| CCS(=O)(=O)N1CCN(Cc2ccncc2)CC1 | -24.8 |  | 1.16 µM [falling, full curve] |
| O=C(CCCc1c[nH]c2ccccc12)N1CCCCCC1 | -13.7 |  | 0.00517 µM [falling, full curve, poor fit] |
| c1cncc(Nc2nc(-c3cccs3)cs2)c1 |  | 6.51 µM [rising, single point] | 6.51 µM [rising, single point] |
| CCc1nc(NCCN)c(C#N)c2c1CSC(C)(C)C2 | 99.2 | 29.1 µM [rising, single point] |  |

2 entries from above, with each value named:
O=C(CCc1ccccc1)Nc1ncc2c(n1)CCCC2=O
  cell number change [%]: 2.99; AC50 [2]: 0.206 µM [rising, full curve]
O=C(CCCc1c[nH]c2ccccc12)N1CCCCCC1
  cell number change [%]: -13.7; AC50 [2]: 0.00517 µM [falling, full curve, poor fit]
